{
  "sequences": {"note": "By UniProt entry, the sequences of proteins in these tests, tags left out.", "UniProt Q9NR12": "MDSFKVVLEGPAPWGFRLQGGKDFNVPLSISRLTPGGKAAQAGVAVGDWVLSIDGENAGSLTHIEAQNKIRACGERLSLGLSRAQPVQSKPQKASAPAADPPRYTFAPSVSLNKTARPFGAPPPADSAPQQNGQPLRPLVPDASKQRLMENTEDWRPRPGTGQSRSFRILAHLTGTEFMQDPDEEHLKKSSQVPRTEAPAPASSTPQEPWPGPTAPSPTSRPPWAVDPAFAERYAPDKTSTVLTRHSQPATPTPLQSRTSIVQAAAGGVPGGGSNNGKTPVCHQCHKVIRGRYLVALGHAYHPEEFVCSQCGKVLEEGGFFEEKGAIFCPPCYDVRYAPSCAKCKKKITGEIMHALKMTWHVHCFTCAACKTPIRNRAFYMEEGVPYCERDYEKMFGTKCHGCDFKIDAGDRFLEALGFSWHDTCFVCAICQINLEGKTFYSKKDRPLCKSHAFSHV"},
  "source": "paper PMC6262774",
  "target": "GFP-tagged human YAP (pEGFP C3-YAP2) (human) (UniProt P46937)",
  "experiment": "affinity purification with mass spectrometry; GFP-Trap-M beads, lysate of HEK293T cells transfected with GFP-YAP; lysis buffer 10 mM Tris-HCl pH 7.5, 150 mM NaCl, 0.5% NP-40, 0.5 mM EDTA; three washes; SDS-PAGE, in-gel trypsin digestion, Q-Exactive, MaxQuant iBAQ",
  "note": "Results are given in words; binding and its absence hold for the method and conditions named. Binding seen in cells or lysates may run through a third protein. These calls come from enrichment with a bait or labelling near it, and not all partners need be listed.",
  "data": [
    {"substance": "PDLIM7 (Enigma) in HEK293T lysate (from UniProt Q9NR12 1-457)", "values": [
      {"measurement": "binding", "value": "binds"}
    ]}
  ]
}
